The values that follow come from article PMC12808120.

By UniProt entry, the sequences of proteins in these tests, tags left out.
UniProt O00425, whole entry: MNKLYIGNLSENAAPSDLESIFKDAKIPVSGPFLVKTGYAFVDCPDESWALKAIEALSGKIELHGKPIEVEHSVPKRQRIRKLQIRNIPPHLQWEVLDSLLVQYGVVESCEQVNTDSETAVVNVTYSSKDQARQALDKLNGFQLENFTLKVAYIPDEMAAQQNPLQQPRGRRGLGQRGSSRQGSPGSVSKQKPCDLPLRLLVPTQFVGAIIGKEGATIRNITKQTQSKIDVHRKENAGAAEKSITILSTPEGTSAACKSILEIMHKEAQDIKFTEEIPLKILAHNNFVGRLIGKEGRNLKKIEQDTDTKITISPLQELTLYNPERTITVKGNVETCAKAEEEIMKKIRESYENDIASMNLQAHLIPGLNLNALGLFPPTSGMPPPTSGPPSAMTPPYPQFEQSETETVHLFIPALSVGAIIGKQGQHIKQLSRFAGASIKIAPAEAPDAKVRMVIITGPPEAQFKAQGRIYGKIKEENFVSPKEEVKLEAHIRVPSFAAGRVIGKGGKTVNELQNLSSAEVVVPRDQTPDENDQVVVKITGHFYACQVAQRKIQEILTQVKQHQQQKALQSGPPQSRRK

This data set concerns the target IGF2BP3 (endogenous, cell extract) (Homo sapiens) (UniProt O00425). Nature of the data set: pull-down, mass spectrometry. Conditions: quantified on both RNAs, significantly enriched on FMR1-99CGG over 23CGG; 3' biotin; pull-down: lysate mixed 1:1 with 2x TENT (100 mM Tris pH 7.8, 2 mM EDTA, 500 mM NaCl, 0.1% Tween), 21 C; protein in an extract; label: biotin.

The exact form of at least one protein or probe is not confirmed. Where cells or extracts were used, other partners may take part. The comparison behind a weaker result is the experiment's own reference, which may not be listed here.

In the case of “CGGCGGCGGCGGCGGCGGCGGCGGCGGCGGCGGCGGCGGCGGCGGCGGCGGCGGCGGCGGCGGCGGCGG [23CGG]”, the binding result was “binds more weakly”.
